Test results as given in paper PMC10352775.
These are yes or no findings as the source states them, for the method shown. In cells and extracts the contact can be indirect. Some entries that bind do so weakly or less than the wild type.

Amino acid sequences for entries named in this document (tags omitted).
UniProt P14618: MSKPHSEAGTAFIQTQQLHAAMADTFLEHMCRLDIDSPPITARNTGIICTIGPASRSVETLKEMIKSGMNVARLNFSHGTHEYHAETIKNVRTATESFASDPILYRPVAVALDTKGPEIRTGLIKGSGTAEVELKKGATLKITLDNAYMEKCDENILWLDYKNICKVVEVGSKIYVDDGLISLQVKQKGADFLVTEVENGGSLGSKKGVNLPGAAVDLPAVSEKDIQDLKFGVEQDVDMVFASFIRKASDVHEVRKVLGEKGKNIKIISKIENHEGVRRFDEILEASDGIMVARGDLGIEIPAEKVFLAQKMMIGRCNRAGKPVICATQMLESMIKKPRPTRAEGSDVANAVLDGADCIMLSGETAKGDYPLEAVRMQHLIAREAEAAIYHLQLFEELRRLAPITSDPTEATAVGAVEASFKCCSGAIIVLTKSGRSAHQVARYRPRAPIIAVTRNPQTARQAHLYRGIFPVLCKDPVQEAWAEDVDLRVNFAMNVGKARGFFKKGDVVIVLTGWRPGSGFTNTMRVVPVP
UniProt Q9UBL6: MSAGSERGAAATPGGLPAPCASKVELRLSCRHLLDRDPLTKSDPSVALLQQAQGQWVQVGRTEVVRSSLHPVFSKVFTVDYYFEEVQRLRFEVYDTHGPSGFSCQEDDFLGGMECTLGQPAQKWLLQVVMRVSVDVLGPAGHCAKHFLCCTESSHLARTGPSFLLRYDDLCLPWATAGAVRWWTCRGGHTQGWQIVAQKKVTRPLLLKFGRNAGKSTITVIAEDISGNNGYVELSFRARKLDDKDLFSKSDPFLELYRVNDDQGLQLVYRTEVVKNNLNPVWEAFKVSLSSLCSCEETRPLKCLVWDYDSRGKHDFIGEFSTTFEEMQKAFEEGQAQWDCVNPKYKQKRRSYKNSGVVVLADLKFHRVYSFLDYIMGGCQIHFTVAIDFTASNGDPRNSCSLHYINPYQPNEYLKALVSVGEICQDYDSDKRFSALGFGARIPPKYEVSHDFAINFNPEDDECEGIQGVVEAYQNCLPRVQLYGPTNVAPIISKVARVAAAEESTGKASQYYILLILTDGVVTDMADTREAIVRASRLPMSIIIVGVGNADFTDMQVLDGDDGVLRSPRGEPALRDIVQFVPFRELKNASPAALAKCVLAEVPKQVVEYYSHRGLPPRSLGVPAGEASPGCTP

Key:
[1] = target: Pyruvate kinase muscle protein (PKM2), exogenous, in HEK293 cells (UniProt P14618); test: co-IP; HEK293 cells co-transfected with CPNE7-OE and PKM2-OE lentivirus; lysate precleared with A/G PLUS agarose at 4°C for 2 hours; primary antibody 1 hour at 4°C, agarose overnight at 4°C; Western blot; both directions
[2] = target: Copine 7 (CPNE7), exogenous, in HEK293 cells (UniProt Q9UBL6); test: as above

## Copine 7 (CPNE7), exogenous, in HEK293 cells (from UniProt Q9UBL6 1-633)
[1]
  binding: binds

## Pyruvate kinase muscle protein (PKM2), exogenous, in HEK293 cells (from UniProt P14618 1-531)
[2]
  binding: binds
